In paper PMC9060481 one finds binding data, which are given here for six substances.

The target of assay [1] is T1, DOESN'T MAKE INFECTIONS1 (DMI1), yeast two-hybrid fusion (M. truncatula) (UniProt Q6RHR6).
T1 sequence: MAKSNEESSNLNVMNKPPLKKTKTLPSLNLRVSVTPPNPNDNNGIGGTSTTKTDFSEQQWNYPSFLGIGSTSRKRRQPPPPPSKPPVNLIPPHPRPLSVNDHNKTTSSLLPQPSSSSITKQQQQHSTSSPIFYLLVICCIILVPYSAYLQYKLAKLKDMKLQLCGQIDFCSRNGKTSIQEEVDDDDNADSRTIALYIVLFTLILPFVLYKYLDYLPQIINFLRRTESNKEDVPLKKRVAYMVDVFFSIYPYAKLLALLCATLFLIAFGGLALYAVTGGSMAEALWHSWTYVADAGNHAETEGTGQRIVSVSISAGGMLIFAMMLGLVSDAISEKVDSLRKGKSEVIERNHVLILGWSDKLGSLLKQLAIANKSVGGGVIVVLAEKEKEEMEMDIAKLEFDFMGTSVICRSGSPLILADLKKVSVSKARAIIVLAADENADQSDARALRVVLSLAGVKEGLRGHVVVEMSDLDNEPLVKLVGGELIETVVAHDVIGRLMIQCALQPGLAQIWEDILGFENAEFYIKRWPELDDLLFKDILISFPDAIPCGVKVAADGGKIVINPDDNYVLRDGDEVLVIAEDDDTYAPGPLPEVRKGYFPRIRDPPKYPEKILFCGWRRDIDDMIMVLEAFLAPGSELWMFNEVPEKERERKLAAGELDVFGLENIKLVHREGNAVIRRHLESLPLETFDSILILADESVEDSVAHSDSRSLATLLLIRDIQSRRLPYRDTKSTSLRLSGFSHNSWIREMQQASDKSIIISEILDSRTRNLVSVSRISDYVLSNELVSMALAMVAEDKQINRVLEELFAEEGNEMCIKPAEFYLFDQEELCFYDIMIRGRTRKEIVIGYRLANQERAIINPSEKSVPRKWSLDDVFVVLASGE
Nature of the assay: two-hybrid; pairwise yeast two hybrids.

In assay [2] the target is T2, CNGC15c-IQ peptide (M. truncatula).
T2 sequence (peptide): AACFIQAAWRRHKKRKEA
The experiment in a line: ITC; CaM2 or CaM2^R91A with 10 µM IQ peptide in the presence of 5 mM CaCl2; both purified. On the technique in general: In ITC the heat of successive injections is recorded.

Assay [3] concerns the target T3, CNGC15b-IQ peptide (M. truncatula).
T3 sequence (peptide): AACFIQVAWRRTIQEKKG
The description is as above.

No constants are given. Whether binding was seen depends on the method and setting. For some assays here: Binding calls can cover weak binding; strength is not graded here. For some assays here: Sequences can lack the tags named with a protein.

In the case of “CALMODULIN 2 (CaM2), yeast two-hybrid fusion (M. truncatula)”, in assay [1], the binding result was “no binding”.
“CALMODULIN 1 (CaM1), yeast two-hybrid fusion (M. truncatula)”: in assay [1], the binding result is listed as “no binding”.
On to “CaM2^R91A, purified recombinant protein (M. truncatula)”, for which the binding result in assay [2] and in assay [3] was “binds” throughout.
For “calmodulin 2 (CaM2), purified recombinant protein (M. truncatula)”, the binding entry in assay [2] and in assay [3] was “binds” each time.
With “CaM2^R91A, yeast two-hybrid fusion (M. truncatula)”, in assay [1], the binding result was “no binding”.
In the case of “CALMODULIN 3 (CaM3), yeast two-hybrid fusion (M. truncatula)”, the binding result in assay [1] is “no binding”.
